In US5548062A (Asahi Glass Company Ltd., priority 1990, dated 1996):

Assay: peptide synthesis
Conditions: whole synthesis, reversed-phase HPLC (μBondasphere C18 column, Waters)

PEPTIDE1{A.E.D.G.D.A.K.T.D.Q.A.E.K.A.E.G.A.G.D.A.K}$$$$V2.0
final HPLC purity: at least 99%

Some peptides are written in HELM: one residue between dots, names in brackets for other building blocks, links after the first $. The same purity stands for every peptide and may come from a single statement.
